# Results published in article PMC7819943, “Rice protein-binding microarrays: a tool to detect cis-acting elements near promoter regions in rice”.
# The other results are listed elsewhere or left out.
# Biological target: T1, OsSMF1 (Oryza sativa, UniProt Q6ZLB0 1-436)
# T1 sequence: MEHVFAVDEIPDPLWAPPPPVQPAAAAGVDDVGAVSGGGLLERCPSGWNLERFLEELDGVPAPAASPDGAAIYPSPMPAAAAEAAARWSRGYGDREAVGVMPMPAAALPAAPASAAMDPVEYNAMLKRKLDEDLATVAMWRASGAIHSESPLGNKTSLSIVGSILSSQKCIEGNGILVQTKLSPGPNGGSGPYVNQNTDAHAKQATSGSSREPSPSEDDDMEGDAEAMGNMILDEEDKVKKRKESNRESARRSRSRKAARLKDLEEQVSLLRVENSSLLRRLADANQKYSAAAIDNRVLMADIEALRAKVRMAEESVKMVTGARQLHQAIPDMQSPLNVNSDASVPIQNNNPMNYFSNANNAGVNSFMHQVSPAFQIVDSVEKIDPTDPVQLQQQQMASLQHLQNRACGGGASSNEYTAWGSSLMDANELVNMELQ
# Assay: protein-binding microarray (RPBM); PBS, 2% BSA, 51.3 ng/ul salmon testes DNA, 50 uM zinc acetate, 200 nM TF, 25 C, 1 h; high values mean tight binding
# Settings: protein: recombinant; tags: N-terminal polyhistidine and DsRed monomer fusion (pET32a); chain copies: 2; label: CyDye5-dUTP incorporated in the synthesized complementary strand; 3' TTTTT single-stranded linker to array surface; dsDNA, one strand shown
# Procedure, shortened: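 Ni–NTA purification followed expression in E. coli BL21-CodonPlus of transcription factors fused N-terminally to a polyhistidine tag and DsRed. At 200 nM in PBS with 2% BSA, salmon testes DNA and 50 µM zinc acetate, the protein was incubated for 1 h at 25 °C with a custom Agilent array that had been primer-extended with Cy5-dUTP and blocked with 2% BSA. After washing, the array was read on an Axon 4000B scanner. The binding signal is per-feature fluorescence intensity in arbitrary units.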
row,Sequence,binding signal
1,AAAATTCCACATCAAATATGTCATACTATATCCCTGATGACGGAGTCACCTAGTGCAG,3720 fluorescence intensity (a.u.)
2,AATCGTGCCATCGTCATCAAATCAGCAGAAGTACACACTCCGGAGTCACCTAGTGCAG,4890 fluorescence intensity (a.u.)
3,GCTATATTTAGAATATGACGCAATCTACGGGACACAAAACCGGAGTCACCTAGTGCAG,3630 fluorescence intensity (a.u.)
4,GCGGCGAGGTGGTGCCGCCGCACGTGCTGCTGGCGCGGCGCGGAGTCACCTAGTGCAG,3830 fluorescence intensity (a.u.)
5,AAAGCGGCGCACATGGGGCGAGCGAGGAGGGGTGCCACGTCGGAGTCACCTAGTGCAG,9280 fluorescence intensity (a.u.)
6,AAGTGTGTAGTTTGGTGAGCTACTAGTGTCACAGCGTGACCGGAGTCACCTAGTGCAG,4950 fluorescence intensity (a.u.)
7,CCCCGCCACGTGTCGAGGTGGGCCCCACCAACGACCGGACCGGAGTCACCTAGTGCAG,7940 fluorescence intensity (a.u.)
8,TGTAGAGTGTGTGTGCGTGTTCATATGGGTTGGTGTATGTCGGAGTCACCTAGTGCAG,3790 fluorescence intensity (a.u.)
9,TAAACGAGGCAACGTGTTCCTCGAGATCTTCAGAGCCAGGCGGAGTCACCTAGTGCAG,4060 fluorescence intensity (a.u.)
10,TGGTCCCAACCTTTTCATACTTACGTGTCAGCTCTCAACACGGAGTCACCTAGTGCAG,14000 fluorescence intensity (a.u.)
11,TATAGTTGTGTACTAGTGTCACTCACGCCACCCGTCTCATCGGAGTCACCTAGTGCAG,3670 fluorescence intensity (a.u.)
12,TATATACCCAAAGAGAATCATTGATACGTCGTCACACATACGGAGTCACCTAGTGCAG,4310 fluorescence intensity (a.u.)
13,TAAAAGAAAATAGGATATATGAGGTGGATTTTGTGCACACCGGAGTCACCTAGTGCAG,4400 fluorescence intensity (a.u.)
14,TTTCATGCGTTCCAAGTTGTCATTACTCCTTTGTACTCTCCGGAGTCACCTAGTGCAG,3240 fluorescence intensity (a.u.)
15,CGGAATTGTTTCACTCGTTTAAATCGAGTGTTGTTTCACCCGGAGTCACCTAGTGCAG,12500 fluorescence intensity (a.u.)
16,TAAGAGCTATTGGAATACGTGTAATAAACCTTTTCGACTTCGGAGTCACCTAGTGCAG,3600 fluorescence intensity (a.u.)
17,TCCCTTGACGGTTTTGGCTGACGTGGCGCCTAGGTGGCTACGGAGTCACCTAGTGCAG,30000 fluorescence intensity (a.u.)
18,AAAATAATGGGGCTCACATGGGTCCACATGTCGGTCTCACCGGAGTCACCTAGTGCAG,3190 fluorescence intensity (a.u.)
19,GCTCATCCATGATTCCACCGTGGCAGGAACTGCAGGTGTACGGAGTCACCTAGTGCAG,5780 fluorescence intensity (a.u.)
20,CGAAGACAATTCAGCAGCAGTAACAATCATTTGAACCATACGGAGTCACCTAGTGCAG,37000 fluorescence intensity (a.u.)
21,TTTTGACACCGTGATGGGCACCTCCCTACCATTGGGCCCTCGGAGTCACCTAGTGCAG,21700 fluorescence intensity (a.u.)

# Reprinted at random: 2 records from the list, in no set order.
row,Sequence,binding signal
6,AAGTGTGTAGTTTGGTGAGCTACTAGTGTCACAGCGTGACCGGAGTCACCTAGTGCAG,4950 fluorescence intensity (a.u.)
7,CCCCGCCACGTGTCGAGGTGGGCCCCACCAACGACCGGACCGGAGTCACCTAGTGCAG,7940 fluorescence intensity (a.u.)

# (further entries)

row,Sequence,binding signal
1,GCTCCTGCGCGGAGTCTCCGTGGACACCTCTCCTCCTCCCCGGAGTCACCTAGTGCAG,3670 fluorescence intensity (a.u.)
2,ACAGGAAACACCTCATGACGGAGCAGTCACCAGTCAGCTGCGGAGTCACCTAGTGCAG,5000 fluorescence intensity (a.u.)
3,TTACTTCCATCGCAACGACATTGCTTGCTACGTCACATGCCGGAGTCACCTAGTGCAG,5980 fluorescence intensity (a.u.)
4,GCTGAGTTAGCTGCCACGTCAGCTAGGGGATCGGCCCGGCCGGAGTCACCTAGTGCAG,16100 fluorescence intensity (a.u.)
5,GCAACCCAAATGGAGTACGCTACGTCGTCAGTCGCCACTACGGAGTCACCTAGTGCAG,3990 fluorescence intensity (a.u.)
6,GACGACCTCCGCCGGCTGCACCCGGACGTCACCATCGTGTCGGAGTCACCTAGTGCAG,3450 fluorescence intensity (a.u.)
7,CAAGCAGTCATATGAGTCAAGGAAGCAGATGACACAAACTCGGAGTCACCTAGTGCAG,3930 fluorescence intensity (a.u.)
8,GCGTCATCATGACATGCCACGTCAGCACATGGAGCGGGTTCGGAGTCACCTAGTGCAG,26100 fluorescence intensity (a.u.)
9,GAGGTTCAGGCAAAGGCATCTTGGTGACAGATTCCATCTGCGGAGTCACCTAGTGCAG,3710 fluorescence intensity (a.u.)
10,ACTAGTCCACTGTTCGGGAATGATCCAATTATTTATTTGTCGGAGTCACCTAGTGCAG,27600 fluorescence intensity (a.u.)
11,TACTTTGAATCTATGTCCATTTGCTGAGCAGGTACCTTTGCGGAGTCACCTAGTGCAG,3430 fluorescence intensity (a.u.)
12,CCTTCGTGCGTGGCGTGAGTTGGAATCCTAGAAAAGATCGCGGAGTCACCTAGTGCAG,3200 fluorescence intensity (a.u.)
13,GTGTCACTCGTGTAGTAGGATGGCAATGGGGCGGGTCGGGCGGAGTCACCTAGTGCAG,4250 fluorescence intensity (a.u.)
14,TTACTGATGCGGTGATGCCGATATGATATTTGTCCATCTTCGGAGTCACCTAGTGCAG,3310 fluorescence intensity (a.u.)
15,TCATGCGCGAGGGACGATCTGGCCGTCCACGTGTCCCAGCCGGAGTCACCTAGTGCAG,17200 fluorescence intensity (a.u.)
16,GGCACGCGTGCGGATCCTGCCACGTAGCCATGGGGCCCACCGGAGTCACCTAGTGCAG,11900 fluorescence intensity (a.u.)
17,CGAATTATTACGGCCATCCGTAGTCACCACCTCCTTTGACCGGAGTCACCTAGTGCAG,3540 fluorescence intensity (a.u.)
18,AATTTGTATTCAATGCTTCATACACGTGTCCAATGATTTACGGAGTCACCTAGTGCAG,6390 fluorescence intensity (a.u.)
19,TTTCCCCGGTGGATCGTGTTCGGACACGTCGCGGCCCCTCCGGAGTCACCTAGTGCAG,6200 fluorescence intensity (a.u.)
20,TTGGCGCCTCCATCAACCGTCCACGTCGTCTTCGGCCTCACGGAGTCACCTAGTGCAG,4560 fluorescence intensity (a.u.)
21,GAACTAGACGAACAGTATAAATCCGGGTTCGAGGGTTCAACGGAGTCACCTAGTGCAG,8130 fluorescence intensity (a.u.)
